Experimental data as given in the supplement of paper PMC10849652.
The other results are listed elsewhere or left out.

Protein sequences, listed by entry. Tags and fused reporters are not part of them. Lines headed by an entry give the natural chain unless they say otherwise; changes in a name come on top.
UniProt P53794: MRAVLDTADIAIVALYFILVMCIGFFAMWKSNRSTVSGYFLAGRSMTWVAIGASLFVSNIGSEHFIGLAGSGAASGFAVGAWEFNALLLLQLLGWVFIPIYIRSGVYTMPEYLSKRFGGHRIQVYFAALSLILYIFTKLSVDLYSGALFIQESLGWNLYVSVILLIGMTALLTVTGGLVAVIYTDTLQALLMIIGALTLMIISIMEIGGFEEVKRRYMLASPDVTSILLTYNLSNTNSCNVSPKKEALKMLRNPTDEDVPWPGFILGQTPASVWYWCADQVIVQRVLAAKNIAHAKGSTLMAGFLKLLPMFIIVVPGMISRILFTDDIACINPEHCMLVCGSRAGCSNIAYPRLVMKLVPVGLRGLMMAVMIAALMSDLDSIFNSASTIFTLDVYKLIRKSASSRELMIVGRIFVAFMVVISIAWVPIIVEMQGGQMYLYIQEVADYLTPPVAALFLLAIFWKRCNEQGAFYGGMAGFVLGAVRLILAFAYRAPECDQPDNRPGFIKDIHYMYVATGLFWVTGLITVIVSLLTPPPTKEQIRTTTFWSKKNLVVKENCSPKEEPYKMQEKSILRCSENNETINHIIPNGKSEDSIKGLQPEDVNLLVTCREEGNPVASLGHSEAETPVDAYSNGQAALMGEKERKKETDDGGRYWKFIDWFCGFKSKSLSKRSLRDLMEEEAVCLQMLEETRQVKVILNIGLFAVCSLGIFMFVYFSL
UniProt P02730: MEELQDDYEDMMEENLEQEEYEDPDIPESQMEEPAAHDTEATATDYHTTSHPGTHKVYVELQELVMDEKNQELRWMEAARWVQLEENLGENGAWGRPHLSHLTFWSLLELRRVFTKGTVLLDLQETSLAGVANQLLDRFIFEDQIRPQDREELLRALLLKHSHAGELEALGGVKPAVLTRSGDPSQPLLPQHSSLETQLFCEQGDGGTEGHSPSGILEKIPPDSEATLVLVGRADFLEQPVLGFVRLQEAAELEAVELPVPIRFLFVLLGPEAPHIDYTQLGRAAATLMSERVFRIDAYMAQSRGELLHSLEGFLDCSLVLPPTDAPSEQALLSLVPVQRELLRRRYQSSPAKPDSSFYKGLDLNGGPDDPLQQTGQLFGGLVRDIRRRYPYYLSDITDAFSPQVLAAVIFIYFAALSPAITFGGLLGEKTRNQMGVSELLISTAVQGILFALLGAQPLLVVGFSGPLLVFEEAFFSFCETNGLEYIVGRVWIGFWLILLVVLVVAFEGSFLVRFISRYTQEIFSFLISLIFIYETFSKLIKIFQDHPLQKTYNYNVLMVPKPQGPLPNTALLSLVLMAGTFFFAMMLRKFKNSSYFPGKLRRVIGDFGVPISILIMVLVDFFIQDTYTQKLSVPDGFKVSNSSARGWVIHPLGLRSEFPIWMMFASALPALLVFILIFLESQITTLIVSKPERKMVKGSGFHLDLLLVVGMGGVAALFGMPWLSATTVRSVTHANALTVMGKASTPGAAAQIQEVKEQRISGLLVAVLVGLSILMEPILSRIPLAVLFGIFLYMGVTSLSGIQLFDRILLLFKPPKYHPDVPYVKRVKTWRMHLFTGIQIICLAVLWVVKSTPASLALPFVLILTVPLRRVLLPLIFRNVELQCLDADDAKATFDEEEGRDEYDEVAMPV
UniProt Q9Y619: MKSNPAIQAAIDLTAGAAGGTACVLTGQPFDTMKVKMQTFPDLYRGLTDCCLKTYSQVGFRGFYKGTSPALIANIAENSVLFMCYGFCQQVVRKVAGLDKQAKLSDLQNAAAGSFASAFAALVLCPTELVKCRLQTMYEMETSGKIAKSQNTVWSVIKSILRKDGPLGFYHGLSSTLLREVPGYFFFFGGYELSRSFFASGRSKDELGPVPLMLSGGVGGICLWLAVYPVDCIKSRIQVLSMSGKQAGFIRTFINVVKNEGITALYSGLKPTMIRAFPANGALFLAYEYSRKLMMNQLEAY
UniProt Q9H936: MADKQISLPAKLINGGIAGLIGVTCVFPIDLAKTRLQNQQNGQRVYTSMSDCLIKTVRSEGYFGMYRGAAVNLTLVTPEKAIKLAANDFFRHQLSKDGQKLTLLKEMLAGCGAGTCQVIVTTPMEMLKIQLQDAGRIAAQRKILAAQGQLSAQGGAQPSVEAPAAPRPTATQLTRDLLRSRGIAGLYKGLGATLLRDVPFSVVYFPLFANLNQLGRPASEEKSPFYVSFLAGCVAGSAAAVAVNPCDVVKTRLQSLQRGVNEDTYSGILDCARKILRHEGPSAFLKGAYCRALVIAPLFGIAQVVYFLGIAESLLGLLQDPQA
UniProt P12236: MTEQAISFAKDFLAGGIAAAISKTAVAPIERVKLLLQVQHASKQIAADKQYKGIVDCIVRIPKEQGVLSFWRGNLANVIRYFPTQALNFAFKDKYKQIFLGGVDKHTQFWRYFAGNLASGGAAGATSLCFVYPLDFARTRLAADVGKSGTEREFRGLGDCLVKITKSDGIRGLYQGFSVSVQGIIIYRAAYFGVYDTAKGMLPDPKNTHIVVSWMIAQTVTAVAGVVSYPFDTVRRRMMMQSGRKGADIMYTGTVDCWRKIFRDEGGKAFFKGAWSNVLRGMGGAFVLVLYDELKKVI
UniProt Q96AG3: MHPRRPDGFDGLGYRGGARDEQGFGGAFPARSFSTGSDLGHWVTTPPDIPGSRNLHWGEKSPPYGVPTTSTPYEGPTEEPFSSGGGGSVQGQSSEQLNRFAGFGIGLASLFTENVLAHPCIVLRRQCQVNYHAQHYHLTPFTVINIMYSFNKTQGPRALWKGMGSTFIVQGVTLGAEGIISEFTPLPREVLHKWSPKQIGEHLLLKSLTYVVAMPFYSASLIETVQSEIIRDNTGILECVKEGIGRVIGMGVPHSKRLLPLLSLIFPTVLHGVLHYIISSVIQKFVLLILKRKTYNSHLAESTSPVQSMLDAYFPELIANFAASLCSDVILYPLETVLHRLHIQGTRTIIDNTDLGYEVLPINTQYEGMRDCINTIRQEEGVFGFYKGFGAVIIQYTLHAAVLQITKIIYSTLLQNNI
UniProt Q00325: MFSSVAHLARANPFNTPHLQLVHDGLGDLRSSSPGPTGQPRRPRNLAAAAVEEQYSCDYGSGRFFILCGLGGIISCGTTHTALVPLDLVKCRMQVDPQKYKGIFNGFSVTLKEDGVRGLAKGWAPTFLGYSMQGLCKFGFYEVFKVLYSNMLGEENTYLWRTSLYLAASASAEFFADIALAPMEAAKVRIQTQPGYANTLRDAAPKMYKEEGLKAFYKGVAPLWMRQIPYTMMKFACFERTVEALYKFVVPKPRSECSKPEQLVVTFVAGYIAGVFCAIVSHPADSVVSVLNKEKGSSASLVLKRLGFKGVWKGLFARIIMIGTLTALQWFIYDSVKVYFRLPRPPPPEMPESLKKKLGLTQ
UniProt Q9HC21: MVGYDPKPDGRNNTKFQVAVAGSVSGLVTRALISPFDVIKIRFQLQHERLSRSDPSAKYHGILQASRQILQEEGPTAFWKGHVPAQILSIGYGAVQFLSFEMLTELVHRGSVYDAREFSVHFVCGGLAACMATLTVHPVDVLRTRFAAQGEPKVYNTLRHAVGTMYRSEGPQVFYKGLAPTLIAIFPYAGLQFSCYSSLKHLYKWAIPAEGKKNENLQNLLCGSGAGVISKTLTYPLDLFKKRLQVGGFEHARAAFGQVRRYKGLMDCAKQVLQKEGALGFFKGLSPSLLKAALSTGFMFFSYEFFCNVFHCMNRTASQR
UniProt Q9Y2D2: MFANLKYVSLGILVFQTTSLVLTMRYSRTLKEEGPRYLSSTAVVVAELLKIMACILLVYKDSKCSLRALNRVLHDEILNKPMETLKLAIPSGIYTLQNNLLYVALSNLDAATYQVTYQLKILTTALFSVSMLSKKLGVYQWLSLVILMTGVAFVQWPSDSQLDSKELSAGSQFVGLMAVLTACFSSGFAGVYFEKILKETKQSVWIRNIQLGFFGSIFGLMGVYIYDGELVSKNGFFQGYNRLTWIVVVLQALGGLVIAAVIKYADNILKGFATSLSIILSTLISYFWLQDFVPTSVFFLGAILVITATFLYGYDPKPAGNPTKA
UniProt Q9BQT8: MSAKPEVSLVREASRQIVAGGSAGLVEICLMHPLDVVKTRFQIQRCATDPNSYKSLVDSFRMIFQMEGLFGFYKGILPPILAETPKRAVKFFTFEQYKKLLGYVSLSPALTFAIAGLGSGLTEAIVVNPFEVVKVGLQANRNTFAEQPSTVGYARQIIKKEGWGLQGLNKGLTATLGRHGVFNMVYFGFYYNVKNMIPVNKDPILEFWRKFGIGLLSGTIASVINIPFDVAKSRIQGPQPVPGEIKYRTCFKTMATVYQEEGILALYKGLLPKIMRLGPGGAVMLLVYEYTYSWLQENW
UniProt L0R6Q1: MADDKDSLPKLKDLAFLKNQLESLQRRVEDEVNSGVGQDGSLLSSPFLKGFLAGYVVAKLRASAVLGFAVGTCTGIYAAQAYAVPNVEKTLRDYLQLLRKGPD
UniProt Q9BSK2: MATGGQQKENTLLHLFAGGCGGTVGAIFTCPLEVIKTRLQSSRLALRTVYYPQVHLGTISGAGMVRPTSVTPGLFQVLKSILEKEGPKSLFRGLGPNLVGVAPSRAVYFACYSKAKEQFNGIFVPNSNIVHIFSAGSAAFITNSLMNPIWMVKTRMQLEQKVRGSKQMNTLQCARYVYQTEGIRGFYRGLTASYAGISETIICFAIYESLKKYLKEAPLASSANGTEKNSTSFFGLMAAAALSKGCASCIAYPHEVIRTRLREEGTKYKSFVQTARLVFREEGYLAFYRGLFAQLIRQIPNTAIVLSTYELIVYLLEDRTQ
UniProt Q96A29: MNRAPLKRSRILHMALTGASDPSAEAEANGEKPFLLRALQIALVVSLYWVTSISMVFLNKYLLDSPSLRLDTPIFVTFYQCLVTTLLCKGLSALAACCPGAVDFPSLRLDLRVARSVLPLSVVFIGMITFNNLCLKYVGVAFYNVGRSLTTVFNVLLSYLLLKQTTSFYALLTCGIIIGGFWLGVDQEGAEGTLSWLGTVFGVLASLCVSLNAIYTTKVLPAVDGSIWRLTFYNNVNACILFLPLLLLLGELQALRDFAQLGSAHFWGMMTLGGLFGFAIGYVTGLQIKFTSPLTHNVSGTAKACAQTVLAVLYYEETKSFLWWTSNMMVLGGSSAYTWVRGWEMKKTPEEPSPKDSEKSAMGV
UniProt F5GZS6: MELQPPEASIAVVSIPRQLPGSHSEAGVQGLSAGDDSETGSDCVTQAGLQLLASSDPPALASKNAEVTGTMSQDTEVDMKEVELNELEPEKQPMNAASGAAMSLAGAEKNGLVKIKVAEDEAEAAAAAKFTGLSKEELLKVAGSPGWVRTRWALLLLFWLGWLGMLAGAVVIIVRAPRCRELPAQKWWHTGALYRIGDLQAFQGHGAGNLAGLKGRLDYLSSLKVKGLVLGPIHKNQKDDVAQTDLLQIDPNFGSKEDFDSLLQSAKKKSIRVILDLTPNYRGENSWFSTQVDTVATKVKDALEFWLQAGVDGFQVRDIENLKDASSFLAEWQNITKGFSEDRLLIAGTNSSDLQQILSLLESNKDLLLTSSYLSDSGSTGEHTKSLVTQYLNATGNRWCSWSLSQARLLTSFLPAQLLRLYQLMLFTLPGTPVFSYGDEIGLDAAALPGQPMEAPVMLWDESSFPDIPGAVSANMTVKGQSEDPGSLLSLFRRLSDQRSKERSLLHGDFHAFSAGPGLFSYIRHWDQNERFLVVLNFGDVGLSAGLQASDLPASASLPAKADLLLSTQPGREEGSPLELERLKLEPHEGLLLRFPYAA
UniProt Q8WUM9: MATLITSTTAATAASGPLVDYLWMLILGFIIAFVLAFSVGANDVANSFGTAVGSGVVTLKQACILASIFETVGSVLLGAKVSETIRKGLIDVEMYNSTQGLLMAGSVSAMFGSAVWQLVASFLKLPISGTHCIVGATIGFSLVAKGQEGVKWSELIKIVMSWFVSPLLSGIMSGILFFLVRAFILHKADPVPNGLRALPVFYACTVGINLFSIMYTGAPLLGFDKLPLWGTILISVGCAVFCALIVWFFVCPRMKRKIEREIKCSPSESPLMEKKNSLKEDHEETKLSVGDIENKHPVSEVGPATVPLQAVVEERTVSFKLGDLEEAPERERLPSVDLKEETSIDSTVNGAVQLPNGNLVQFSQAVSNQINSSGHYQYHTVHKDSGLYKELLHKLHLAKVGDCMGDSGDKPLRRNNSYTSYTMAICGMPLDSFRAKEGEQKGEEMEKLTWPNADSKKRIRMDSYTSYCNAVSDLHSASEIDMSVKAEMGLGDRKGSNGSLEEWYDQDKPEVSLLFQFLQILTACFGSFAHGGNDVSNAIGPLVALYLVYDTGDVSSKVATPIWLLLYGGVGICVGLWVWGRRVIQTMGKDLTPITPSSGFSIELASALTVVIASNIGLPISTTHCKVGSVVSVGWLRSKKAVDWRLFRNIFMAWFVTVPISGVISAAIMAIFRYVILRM

Key:
Assay in all cases: log2 fold change, soluble protein after heating vs DMSO (PISA); higher = thermal stabilisation; K562 cells, 10 uM, 30 min; active = over 0.2 and 3.5 SD of the protein, either way, in both replicates (recomputed)
[1] = compound: CC[C@@H]1C(=O)N(C)c2cnc(Nc3ccc(C(=O)NC4CCN(C)CC4)cc3OC)nc2N1C1CCCC1
Outline: (§1)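 Quantification of soluble protein used TMTpro 16plex LC-MS/MS, with channel sums equalised. Samples were the supernatant after 21,000xg for 90 min of pooled aliquots from K562 cells (2×10^6 cells/mL) treated with 10 μM compound for 30 min, heated for 3 min over 48°C-58°C, and extracted in PBS with 0.5% NP-40 at 4°C. Values, from duplicates, describe thermal stability against control samples on a log2 fold-change scale.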

volasertib = compound: CC[C@@H]1C(=O)N(C)c2cnc(Nc3ccc(C(=O)N[C@H]4CC[C@H](N5CCN(CC6CC6)CC5)CC4)cc3OC)nc2N1C(C)C [volasertib]
Outline: as §1

[2] = compound: CC[C@H](C)N1C=C(C2=C(C=C(C=C21)C3=CN=C(C=C3)N4CCNCC4)C(=O)NCC5=C(C=C(NC5=O)C)C)C
Outline: as §1

epoxomicin = compound: CC[C@H](C)[C@@H](C(=O)N[C@@H]([C@@H](C)O)C(=O)N[C@@H](CC(C)C)C(=O)[C@]1(CO1)C)NC(=O)[C@H]([C@@H](C)CC)N(C)C(=O)C [epoxomicin]
Outline: as §1

[3] = compound: CCn1c(C(=O)N(C2CC2)C2CC2)cc2c3c(ncn3C)c(Nc3cc(C)n(C)n3)nc21
Outline: as §1

[4] = compound: CCn1cc(-c2ccnc3[nH]c(-c4cccc(CN(C)C)c4)cc23)c(-c2ccc(NC(=O)N(C)C)cc2)n1
Outline: as §1

[5] = compound: CN(C)CC(=O)Nc1ccc2[nH]c(=O)c3ccccc3c2c1
Outline: as §1

rosiglitazone = compound: CN(CCOC1=CC=C(C=C1)C[C@H]2C(=O)NC(=O)S2)C3=CC=CC=N3 (racemic) [rosiglitazone]
Outline: as §1

[6] = compound: CN1C2=C(C3=C1C(=O)N(N=C3)CC4=CC(=CC=C4)N)SC(=C2)S(=O)C
Outline: as §1

[7] = compound: CN1CCC(CNc2ccc3ncc(-c4cccc(OC(F)(F)F)c4)n3n2)CC1
Outline: as §1

saracatinib = compound: CN1CCN(CCOc2cc(OC3CCOCC3)c3c(Nc4c(Cl)ccc5c4OCO5)ncnc3c2)CC1 [saracatinib]
Outline: as §1

sotrastaurin = compound: CN1CCN(c2nc(C3=C(c4c[nH]c5ccccc45)C(=O)NC3=O)c3ccccc3n2)CC1 [sotrastaurin]
Outline: as §1

alvocidib = compound: CN1CC[C@H](c2c(O)cc(O)c3c(=O)cc(-c4ccccc4Cl)oc23)[C@H](O)C1 [alvocidib]
Outline: as §1

Tubastatin A = compound: CN1CCc2c(c3ccccc3n2Cc2ccc(C(=O)NO)cc2)C1 [Tubastatin A]
Outline: as §1

[8] = compound: CNC(=O)C1=CC=CC=C1NC2=NC(=NC=C2Cl)NC3=C(C=C(C=C3)N4CCOCC4)OC
Outline: as §1

defactinib = compound: CNC(=O)c1ccc(Nc2ncc(C(F)(F)F)c(NCc3nccnc3N(C)S(C)(=O)=O)n2)cc1 [defactinib]
Outline: as §1

rucaparib = compound: CNCc1ccc(-c2[nH]c3cc(F)cc4c3c2CCNC4=O)cc1 [rucaparib]
Outline: as §1

[9] = compound: CNc1nc(-c2ccc3c(N)n[nH]c3c2)cc(N2C[C@@H](C(=O)NC3CCCCC3)CC[C@H]2C)n1
Outline: as §1

encorafenib = compound: COC(=O)N[C@@H](C)CNc1nccc(-c2cn(C(C)C)nc2-c2cc(Cl)cc(NS(C)(=O)=O)c2F)n1 [encorafenib]
Outline: as §1

[10] = compound: COC(=O)[C@H](CCSC)NC(=O)C1=C(C=C(C=C1)NC[C@H](CS)N)C2=CC=CC=C2
Outline: as §1

Measured: log2 fold change

SLC5A3 (UniProt P53794)
inactive: [1] 0.176 | volasertib 0.019 | [2] -0.018 | epoxomicin 0.049 | [3] 0.06 | [4] -0.047 | [5] -0.016 | rosiglitazone -0.01 | [6] -0.028 | [7] 0.122 | saracatinib 0.049 | sotrastaurin 0.043 | alvocidib 0.03 | Tubastatin A -0.021 | [8] 0.004 | defactinib -0.088 | rucaparib -0.063 | [9] 0.075 | encorafenib -0.027 | [10] 0.024

SLC4A1 (UniProt P02730)
inactive: [1] 0.01 | volasertib -0.098 | [2] -0.153 | epoxomicin 0.004 | [3] 0.011 | [4] -0.051 | [5] -0.003 | rosiglitazone -0.082 | [6] -0.075 | [7] 0.095 | saracatinib 0.044 | sotrastaurin 0.097 | alvocidib -0.006 | Tubastatin A -0.053 | [8] 0.011 | defactinib -0.198 | rucaparib -0.002 | [9] -0.02 | encorafenib -0.063 | [10] 0.11

SLC25A15 (UniProt Q9Y619)
inactive: [1] 0.017 | volasertib 0.025 | [2] -0.062 | epoxomicin 0.004 | [3] -0.014 | [4] -0.039 | [5] -0.01 | rosiglitazone -0.006 | [6] -0.039 | [7] 0.085 | saracatinib 0.045 | sotrastaurin 0.049 | alvocidib -0.01 | Tubastatin A -0.024 | [8] 0.001 | defactinib -0.046 | rucaparib -0.129 | [9] -0.018 | encorafenib 0.077 | [10] 0.023

SLC12A6 isoform 2 (UniProt Q9UHW9)
inactive: [1] 0.016 | volasertib -0.04 | [2] 0.016 | epoxomicin 0.02 | [3] 0.058 | [4] -0.033 | [5] 0.041 | rosiglitazone -0.067 | [6] -0.025 | [7] -0.025 | saracatinib 0.062 | sotrastaurin 0.028 | alvocidib 0.008 | Tubastatin A -0.034 | [8] 0.023 | defactinib -0.059 | rucaparib -0.006 | [9] -0.054 | encorafenib 0 | [10] 0.002

SLC25A22 (UniProt Q9H936)
inactive: [1] 0.01 | volasertib 0.024 | [2] -0.039 | epoxomicin 0.006 | [3] 0.015 | [4] 0.007 | [5] -0.017 | rosiglitazone 0.013 | [6] -0.025 | [7] -0.027 | saracatinib 0.01 | sotrastaurin 0.05 | alvocidib -0.011 | Tubastatin A -0.03 | [8] -0.012 | defactinib -0.008 | rucaparib -0.021 | [9] -0.064 | encorafenib -0.003 | [10] 0.069

SLC25A6 (UniProt P12236)
inactive: [1] 0.017 | volasertib 0.046 | [2] -0.055 | epoxomicin -0.05 | [3] 0.048 | [4] 0.031 | [5] 0.012 | rosiglitazone 0.005 | [6] -0.038 | [7] 0.103 | saracatinib 0.015 | sotrastaurin 0.061 | alvocidib -0.002 | Tubastatin A -0.032 | [8] 0 | defactinib 0.008 | rucaparib -0.041 | [9] -0.038 | encorafenib -0.008 | [10] -0.001

SLC25A46 (UniProt Q96AG3)
inactive: [1] 0.021 | volasertib 0.049 | [2] 0.007 | epoxomicin 0.007 | [3] -0.02 | [4] -0.073 | [5] -0.026 | rosiglitazone 0.026 | [6] 0.001 | [7] -0.012 | saracatinib 0.184 | sotrastaurin 0.094 | alvocidib 0.026 | Tubastatin A 0.081 | [8] -0.026 | defactinib 0.002 | rucaparib 0.062 | [9] -0.053 | encorafenib -0.018 | [10] 0.016

Fetched one by one from above (two):
SLC25A22 (UniProt Q9H936)
inactive: [1] 0.01 | volasertib 0.024 | [2] -0.039 | epoxomicin 0.006 | [3] 0.015 | [4] 0.007 | [5] -0.017 | rosiglitazone 0.013 | [6] -0.025 | [7] -0.027 | saracatinib 0.01 | sotrastaurin 0.05 | alvocidib -0.011 | Tubastatin A -0.03 | [8] -0.012 | defactinib -0.008 | rucaparib -0.021 | [9] -0.064 | encorafenib -0.003 | [10] 0.069

SLC25A15 (UniProt Q9Y619)
inactive: [1] 0.017 | volasertib 0.025 | [2] -0.062 | epoxomicin 0.004 | [3] -0.014 | [4] -0.039 | [5] -0.01 | rosiglitazone -0.006 | [6] -0.039 | [7] 0.085 | saracatinib 0.045 | sotrastaurin 0.049 | alvocidib -0.01 | Tubastatin A -0.024 | [8] 0.001 | defactinib -0.046 | rucaparib -0.129 | [9] -0.018 | encorafenib 0.077 | [10] 0.023

(list continues)

SLC25A3 isoform 2 (UniProt Q00325)
inactive: [1] 0.007 | volasertib 0.077 | [2] -0.051 | epoxomicin -0.028 | [3] 0.011 | [4] 0.002 | [5] -0.024 | rosiglitazone -0.001 | [6] -0.052 | [7] 0.078 | saracatinib 0.062 | sotrastaurin 0.053 | alvocidib -0.019 | Tubastatin A -0.025 | [8] 0.005 | defactinib 0.036 | rucaparib -0.04 | [9] -0.007 | encorafenib -0.014 | [10] 0.004

SLC2A3 (UniProt P11169)
inactive: [1] 0.077 | volasertib 0.088 | [2] -0.03 | epoxomicin 0.005 | [3] 0.007 | [4] -0.015 | [5] -0.003 | rosiglitazone -0.019 | [6] -0.055 | [7] 0.19 | saracatinib 0.041 | sotrastaurin 0.023 | alvocidib -0.042 | Tubastatin A -0.001 | [8] -0.051 | defactinib -0.046 | rucaparib -0.055 | [9] -0.007 | encorafenib 0.014 | [10] 0.018

SLC25A19 (UniProt Q9HC21)
inactive: [1] 0.04 | volasertib 0.042 | [2] -0.028 | epoxomicin -0.006 | [3] 0.04 | [4] -0.017 | [5] -0.028 | rosiglitazone 0.008 | [6] -0.042 | [7] 0.053 | saracatinib 0.031 | sotrastaurin 0.037 | alvocidib 0 | Tubastatin A -0.092 | [8] 0.009 | defactinib -0.017 | rucaparib -0.025 | [9] -0.054 | encorafenib -0.033 | [10] 0.019

SLC35A3 isoform 2 (UniProt Q9Y2D2)
inactive: [1] 0.095 | volasertib -0.058 | [2] -0.305 | epoxomicin -0.368 | [3] -0.074 | [4] 0.002 | rosiglitazone 0.009 | [7] -0.047 | sotrastaurin -0.019 | [8] -0.129 | rucaparib -0.012 | encorafenib 0.005

SLC25A21 (UniProt Q9BQT8)
inactive: [1] 0.04 | volasertib 0.049 | [2] -0.069 | epoxomicin -0.022 | [3] 0.026 | [4] 0.013 | [5] -0.034 | rosiglitazone -0.011 | [6] -0.013 | [7] 0.008 | saracatinib 0.061 | sotrastaurin 0.025 | alvocidib 0.046 | Tubastatin A -0.113 | [8] 0.027 | defactinib -0.013 | rucaparib 0.002 | [9] -0.058 | encorafenib -0.011 | [10] 0.034

SLC35A4 (UniProt L0R6Q1)
inactive: [1] 0.064 | volasertib -0.08 | [2] -0.075 | epoxomicin -0.009 | [3] 0.025 | [4] 0.096 | [5] 0.019 | rosiglitazone -0.051 | [6] 0.02 | [7] 0.21 | saracatinib 0.065 | sotrastaurin -0.01 | alvocidib 0.014 | Tubastatin A -0.033 | [8] -0.004 | defactinib -0.033 | rucaparib -0.028 | [9] -0.007 | encorafenib -0.009 | [10] 0.073

SLC25A33 (UniProt Q9BSK2)
inactive: [1] -0.021 | volasertib 0.014 | [2] -0.063 | epoxomicin 0.047 | [3] 0.047 | [4] -0.036 | [5] -0.043 | rosiglitazone -0.025 | [6] 0.016 | [7] 0.187 | saracatinib 0.065 | sotrastaurin 0.044 | alvocidib 0 | Tubastatin A -0.039 | [8] -0.036 | defactinib -0.019 | rucaparib -0.02 | [9] -0.022 | encorafenib 0.006 | [10] 0.01

SLC35C1 (UniProt Q96A29)
inactive: [1] -0.074 | volasertib 0.087 | [2] -0.1 | epoxomicin -0.152 | [3] 0.031 | [4] 0.058 | [5] 0.075 | rosiglitazone 0.032 | [6] -0.037 | [7] 0.073 | saracatinib 0.009 | alvocidib -0.02 | Tubastatin A -0.032 | [8] -0.09 | defactinib -0.011 | rucaparib 0.057 | [9] -0.071 | encorafenib -0.114 | [10] -0.047

SLC3A2 (UniProt F5GZS6)
inactive: [1] 0.174 | volasertib 0.049 | [2] -0.023 | epoxomicin 0.085 | [3] -0.094 | [5] -0.316 | rosiglitazone -0.014 | [6] 0.015 | saracatinib 0.174 | Tubastatin A -0.118 | [8] 0 | defactinib 0.31 | rucaparib 0.172 | [9] -0.129 | encorafenib 0.14 | [10] 0.073

SLC20A1 (UniProt Q8WUM9)
inactive: [1] 0.067 | volasertib 0.009 | [2] -0.054 | epoxomicin 0.012 | [3] 0.018 | [4] -0.003 | [5] 0.002 | rosiglitazone -0.018 | [6] 0.049 | [7] 0.048 | saracatinib -0.016 | sotrastaurin 0.019 | alvocidib 0.006 | Tubastatin A 0.015 | [8] 0.005 | defactinib -0.004 | rucaparib -0.008 | [9] 0.012 | encorafenib 0.008 | [10] 0
